The assay has as its target cTnI quality control product recombinant protein (human) (UniProt P19429). The assay can be described thus: sandwich ELISA (Table 2). (In general: An ELISA detects its analyte on a solid surface through an enzyme-linked reagent.)

Results are given in words; binding and its absence hold for the method and conditions named. Some binding calls cover weakened binding; strength is not graded here.

B1: Mutation 1 (antibody, V domains shown)
VH: EVQLQQSGPELVKPGASVKMSCKASGYTFTLYVVHWVKQKPGQGLEWIGYIQPYLDGTKYNEKFKGKATLTVDKSSSTAFMELSSLTSEDSAVYYCARSGYGGYGLAWLAYWGQGTLVTVSA
VL: QAVVIQESALTTSPGETVTLTCRSSTGAATTSQYANWVQEKPDHLFTGLIGGSNNRAPGVPARFSGSLIGDKAALTITGAQTEDEAIYFCALVYSNHWVFGGGTKLTVLG
notes: CDR mutant of WT
Regarding B1, the binding entry is reported as “binds”.

For the origin of these results see patent US20220033484A1 (FAPON BIOTECH, published 2022).
